In article PMC3364935:
Results are given in words; binding and its absence hold for the method and conditions named. Binding seen in cells or lysates may run through a third protein. Some entries that bind do so weakly or less than the wild type. Sequences can lack the tags named with a protein.

T1: FLAG-tagged ARID4B, DBA allele (mouse) (UniProt A2CG63)
T1 sequence: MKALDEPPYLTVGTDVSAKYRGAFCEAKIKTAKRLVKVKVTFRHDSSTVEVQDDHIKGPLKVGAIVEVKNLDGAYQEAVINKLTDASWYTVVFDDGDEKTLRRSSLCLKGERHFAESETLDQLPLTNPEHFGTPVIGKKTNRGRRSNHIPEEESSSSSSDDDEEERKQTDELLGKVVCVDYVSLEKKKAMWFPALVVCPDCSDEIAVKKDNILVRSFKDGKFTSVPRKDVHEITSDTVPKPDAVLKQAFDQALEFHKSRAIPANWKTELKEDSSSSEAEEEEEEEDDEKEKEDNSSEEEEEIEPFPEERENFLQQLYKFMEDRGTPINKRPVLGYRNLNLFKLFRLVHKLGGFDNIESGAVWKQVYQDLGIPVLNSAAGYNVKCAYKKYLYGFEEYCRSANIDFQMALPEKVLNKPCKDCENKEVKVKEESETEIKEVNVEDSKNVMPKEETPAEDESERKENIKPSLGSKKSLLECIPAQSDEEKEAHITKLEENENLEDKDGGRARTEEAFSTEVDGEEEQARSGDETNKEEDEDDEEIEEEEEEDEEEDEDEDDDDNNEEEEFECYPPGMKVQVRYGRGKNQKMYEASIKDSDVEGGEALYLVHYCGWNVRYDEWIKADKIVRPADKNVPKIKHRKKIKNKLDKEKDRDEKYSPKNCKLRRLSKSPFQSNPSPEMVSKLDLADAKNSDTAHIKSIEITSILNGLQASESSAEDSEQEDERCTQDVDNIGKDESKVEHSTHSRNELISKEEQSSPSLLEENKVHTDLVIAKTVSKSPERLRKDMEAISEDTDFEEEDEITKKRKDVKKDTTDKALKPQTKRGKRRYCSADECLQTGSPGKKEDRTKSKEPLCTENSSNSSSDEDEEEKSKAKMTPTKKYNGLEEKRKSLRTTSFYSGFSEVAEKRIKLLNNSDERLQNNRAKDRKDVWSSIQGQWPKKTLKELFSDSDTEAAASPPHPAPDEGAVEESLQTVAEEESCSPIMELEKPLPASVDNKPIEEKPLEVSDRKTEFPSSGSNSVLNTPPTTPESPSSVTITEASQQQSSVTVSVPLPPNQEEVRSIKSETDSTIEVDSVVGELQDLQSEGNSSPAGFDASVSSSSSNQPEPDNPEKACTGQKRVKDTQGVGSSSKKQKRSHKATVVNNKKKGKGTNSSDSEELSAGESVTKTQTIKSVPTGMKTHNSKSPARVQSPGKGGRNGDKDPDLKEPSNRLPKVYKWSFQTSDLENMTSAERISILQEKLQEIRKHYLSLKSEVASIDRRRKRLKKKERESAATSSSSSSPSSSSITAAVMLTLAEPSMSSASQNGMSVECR

T2: myc-BRMS1 (UniProt Q9HCU9)
T2 sequence: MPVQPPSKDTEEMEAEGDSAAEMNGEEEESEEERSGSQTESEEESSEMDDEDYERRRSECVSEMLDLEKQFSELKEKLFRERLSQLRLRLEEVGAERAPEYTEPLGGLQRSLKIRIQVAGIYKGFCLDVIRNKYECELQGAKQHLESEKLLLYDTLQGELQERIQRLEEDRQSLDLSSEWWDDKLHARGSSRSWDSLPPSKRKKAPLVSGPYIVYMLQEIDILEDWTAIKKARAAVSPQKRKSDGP


What was measured:
[1] = molecular target: T1, FLAG-tagged ARID4B, DBA allele (mouse); experiment: co-IP; HEK293 cells transiently transfected with FLAG-tagged ARID4B (AKR or DBA) and HA-BRMS1; anti-FLAG immunoprecipitation, overnight at 4°C; HA-BRMS1 by western blot
myc-BRMS1 = molecular target: T2, myc-BRMS1; experiment: co-IP; HEK293 cells transiently transfected with FLAG-tagged ARID4B (AKR or DBA) and myc-BRMS1; anti-myc immunoprecipitation, overnight at 4°C; FLAG-ARID4B by western blot

| binding [1] | binding (myc-BRMS1) | Binder |
| --- | --- | --- |
| binds | – | HA-BRMS1 (protein, UniProt Q9HCU9 1-246) MPVQPPSKDTEEMEAEGDSAAEMNGEEEESEEERSGSQTESEEESSEMDDEDYERRRSECVSEMLDLEKQFSELKEKLFRERLSQLRLRLEEVGAERAPEYTEPLGGLQRSLKIRIQVAGIYKGFCLDVIRNKYECELQGAKQHLESEKLLLYDTLQGELQERIQRLEEDRQSLDLSSEWWDDKLHARGSSRSWDSLPPSKRKKAPLVSGPYIVYMLQEIDILEDWTAIKKARAAVSPQKRKSDGP |
| – | binds | FLAG-tagged ARID4B, DBA allele (protein, UniProt A2CG63-1 1-1314) MKALDEPPYLTVGTDVSAKYRGAFCEAKIKTAKRLVKVKVTFRHDSSTVEVQDDHIKGPLKVGAIVEVKNLDGAYQEAVINKLTDASWYTVVFDDGDEKTLRRSSLCLKGERHFAESETLDQLPLTNPEHFGTPVIGKKTNRGRRSNHIPEEESSSSSSDDDEEERKQTDELLGKVVCVDYVSLEKKKAMWFPALVVCPDCSDEIAVKKDNILVRSFKDGKFTSVPRKDVHEITSDTVPKPDAVLKQAFDQALEFHKSRAIPANWKTELKEDSSSSEAEEEEEEEDDEKEKEDNSSEEEEEIEPFPEERENFLQQLYKFMEDRGTPINKRPVLGYRNLNLFKLFRLVHKLGGFDNIESGAVWKQVYQDLGIPVLNSAAGYNVKCAYKKYLYGFEEYCRSANIDFQMALPEKVLNKPCKDCENKEVKVKEESETEIKEVNVEDSKNVMPKEETPAEDESERKENIKPSLGSKKSLLECIPAQSDEEKEAHITKLEENENLEDKDGGRARTEEAFSTEVDGEEEQARSGDETNKEEDEDDEEIEEEEEEDEEEDEDEDDDDNNEEEEFECYPPGMKVQVRYGRGKNQKMYEASIKDSDVEGGEALYLVHYCGWNVRYDEWIKADKIVRPADKNVPKIKHRKKIKNKLDKEKDRDEKYSPKNCKLRRLSKSPFQSNPSPEMVSKLDLADAKNSDTAHIKSIEITSILNGLQASESSAEDSEQEDERCTQDVDNIGKDESKVEHSTHSRNELISKEEQSSPSLLEENKVHTDLVIAKTVSKSPERLRKDMEAISEDTDFEEEDEITKKRKDVKKDTTDKALKPQTKRGKRRYCSADECLQTGSPGKKEDRTKSKEPLCTENSSNSSSDEDEEEKSKAKMTPTKKYNGLEEKRKSLRTTSFYSGFSEVAEKRIKLLNNSDERLQNNRAKDRKDVWSSIQGQWPKKTLKELFSDSDTEAAASPPHPAPDEGAVEESLQTVAEEESCSPIMELEKPLPASVDNKPIEEKPLEVSDRKTEFPSSGSNSVLNTPPTTPESPSSVTITEASQQQSSVTVSVPLPPNQEEVRSIKSETDSTIEVDSVVGELQDLQSEGNSSPAGFDASVSSSSSNQPEPDNPEKACTGQKRVKDTQGVGSSSKKQKRSHKATVVNNKKKGKGTNSSDSEELSAGESVTKTQTIKSVPTGMKTHNSKSPARVQSPGKGGRNGDKDPDLKEPSNRLPKVYKWSFQTSDLENMTSAERISILQEKLQEIRKHYLSLKSEVASIDRRRKRLKKKERESAATSSSSSSPSSSSITAAVMLTLAEPSMSSASQNGMSVECR |
